Measurements: patent publication CN117924498A
No constants are given. Whether binding was seen depends on the method and setting. Some binding calls cover weakened binding; strength is not graded here.

What was measured:
[1] = target: T1, siglec-15 on tumour cells (UniProt Q6ZMC9); test: flow cytometry on A549 cells stably over-expressing siglec-15 (S15-A549)
T1 sequence (looked up): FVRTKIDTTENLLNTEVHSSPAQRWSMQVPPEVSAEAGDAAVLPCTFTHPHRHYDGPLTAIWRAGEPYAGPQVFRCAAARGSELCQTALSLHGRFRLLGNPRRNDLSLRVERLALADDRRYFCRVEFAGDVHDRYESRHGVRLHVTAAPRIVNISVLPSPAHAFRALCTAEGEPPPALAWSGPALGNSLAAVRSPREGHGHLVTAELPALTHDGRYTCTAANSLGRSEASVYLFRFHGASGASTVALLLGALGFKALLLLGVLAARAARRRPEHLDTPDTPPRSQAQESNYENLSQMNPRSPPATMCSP

[2] = target: T1, siglec-15 on tumour cells; test: flow cytometry on 16-HBE, T24, PC-3, NCI-H157, A549 cells
[3] = target: T1, siglec-15 on tumour cells; test: cell immunofluorescence, 20 ug/ml S131-IgG1 on fixed cells

binding [1]: binds
binding [2]: binds
binding [3]: binds
B1: S131-IgG1 (antibody, V domains shown)
VH: QVQLQESGPGLVNPSGTLSLSCTVSGDSIRNWYSWVRQPPGKGLEWIGEIHDNGGTNHNPSLKSRVTMSVGKSTSQLSLILNSVTAADTAVYHCAREGLPDGLDIWGPGTMVTVSS
VL: SSELTQDPAVSVALGQTVRITCQGDSLRSYYASWYQRKPGQAPILVMYGQNNRPSGIPDRFSGSNSRNTASLTITGAQAEDEADYYCGSRDTSDYRVLFGGGTKLTVLG
